Measured values published in article PMC11727142.
No constants are given. Whether binding was seen depends on the method and setting. In cells and extracts the contact can be indirect. These calls come from enrichment with a bait or labelling near it, and not all partners need be listed.

By UniProt entry, the sequences of proteins in these tests, tags left out. Residues count along the entry.
UniProt Q16610, residues 20-540: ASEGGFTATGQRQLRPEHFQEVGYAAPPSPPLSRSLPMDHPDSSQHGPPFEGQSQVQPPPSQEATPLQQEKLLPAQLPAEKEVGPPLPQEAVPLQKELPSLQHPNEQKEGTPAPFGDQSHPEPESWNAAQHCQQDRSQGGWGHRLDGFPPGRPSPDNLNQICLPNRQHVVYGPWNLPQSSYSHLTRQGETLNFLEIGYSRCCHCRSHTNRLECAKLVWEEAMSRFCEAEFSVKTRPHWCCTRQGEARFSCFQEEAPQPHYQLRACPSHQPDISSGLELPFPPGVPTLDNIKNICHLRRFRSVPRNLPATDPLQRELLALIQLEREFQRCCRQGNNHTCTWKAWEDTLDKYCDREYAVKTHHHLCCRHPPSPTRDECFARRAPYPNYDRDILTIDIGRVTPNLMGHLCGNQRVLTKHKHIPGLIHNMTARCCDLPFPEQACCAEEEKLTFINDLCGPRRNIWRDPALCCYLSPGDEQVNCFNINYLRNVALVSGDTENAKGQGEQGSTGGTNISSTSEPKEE
UniProt P06733: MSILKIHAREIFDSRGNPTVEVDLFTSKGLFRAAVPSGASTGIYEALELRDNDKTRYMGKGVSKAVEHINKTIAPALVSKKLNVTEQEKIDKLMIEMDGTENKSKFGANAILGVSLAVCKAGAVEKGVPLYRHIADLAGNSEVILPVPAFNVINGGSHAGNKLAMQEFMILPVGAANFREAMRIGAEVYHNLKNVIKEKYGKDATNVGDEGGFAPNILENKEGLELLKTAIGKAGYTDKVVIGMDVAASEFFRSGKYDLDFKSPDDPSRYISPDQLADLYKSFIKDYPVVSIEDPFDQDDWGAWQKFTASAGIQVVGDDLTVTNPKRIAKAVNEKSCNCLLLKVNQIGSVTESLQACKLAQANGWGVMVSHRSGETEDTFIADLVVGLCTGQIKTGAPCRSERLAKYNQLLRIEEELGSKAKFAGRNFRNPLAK

Molecular target: Recombinant human ECM1 tagged with Flag (extracellular matrix protein 1) (human) (UniProt Q16610)
Test: affinity purification with mass spectrometry; ECM1-Flag added to C4-2B cells for 48 h; membrane proteins isolated; anti-Flag or anti-IgG magnetic beads overnight at 4 °C; six washes with RIPA buffer; MS; only the target purified

## Enolase 1 (ENO1), endogenous in C4-2B cells (from UniProt P06733 1-434) (receptor)
  binding: binds
